The test can be described thus: qHTS Assay for Lipid Storage Modulators in Drosophila S3 Cells.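 For cell number change: cells counted by Cell Tracker Red CMTPX staining in the red channel.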 The note with it: BODIPY lipid droplet fluorescence, 18-24 h; for cell number change: measured here: cell count max response, cells fed with added oleic acid. In a few lines: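 Drosophila S3 cells loaded with oleic acid (400 uM, as added) and compounds at several concentrations; lipid droplets imaged by 488-nm laser-scanning cytometry, 500–530 nm intensity and object ratio to cell channel. Percent activity normalized to 20 uM Triacsin C.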
In general terms: qHTS replaces the single test concentration by a dilution series.

[1] abbreviates: measured here: lipid fluorescence (Fed channel) AC50, cells fed with added oleic acid.
Where [2] appears, read: measured here: cell number channel AC50, cells fed with added oleic acid.

What is called AC50 is the concentration at which the activity in the assay is half-maximal. High values mean activity only at high concentration, low ones activity at low concentration.

This is one part of the list. These are further read-outs of the screen, such as a control signal, another cell line or another target. No call is given for them. The list favours compounds with an active or inconclusive main result. Words in brackets tell the shape of the fitted curve; partial curves, single points and poor fits give uncertain potencies.

On to `CC1(C)Cc2c(c(N3CCOCC3)nc3snc(N)c23)CO1`, for which the cell number change was -14.4%. Also, under setting [1], the half-maximal activity concentration (AC50) was 4.61 µM [falling, partial curve].

With `COC(=O)Cc1cc(=O)n2[nH]c(SC)nc2n1`, the cell number change was -16.4%.

Turning to `O=C(NC(Cc1ccccc1)C(=O)O)/C(=C/c1ccccc1)NC(=O)c1cccc(Br)c1` (configuration not stated), under setting [1], the half-maximal activity concentration (AC50) was 6.51 µM [rising, single point].

`C=CCN(CC=C)C(=S)NC(=O)c1ccc([N+](=O)[O-])cc1`: the cell number change was 0.0662%. Under setting [1], the AC50 is 29.1 µM [falling, single point].

With `Cc1cc2cc(CCNC(=O)c3ccc(C)c([N+](=O)[O-])c3)c(=O)[nH]c2cc1C`, the cell number change was -8.87%.

In the case of `c1coc(CNc2nc(-c3cccs3)cs2)c1`, the cell number change turned out to be 16.9%. In addition, the AC50 under setting [2] was 2.91 µM [rising, single point]. Further, the concentration at half-maximal activity (AC50) under setting [1] is 1.84 µM [rising, full curve, poor fit].

In the case of `CC(C)CCn1c(N2CCC(C(N)=O)CC2)nc2c1c(=O)[nH]c(=O)n2C`, the cell number change was -24.9%. Further, the AC50 under setting [1] was 2.59 µM [rising, single point].

For `O=C(CN1C(=O)C2C3C=CC(C3)C2C1=O)OCC(=O)c1ccc(Cl)cc1` (configuration not stated), the cell number change was -5.25%. The AC50 under setting [1] was 29.1 µM [rising, single point].

On to `Cc1ccc(S(=O)(=O)N2CCC(C(=O)NCCCn3ccnc3)CC2)cc1`, for which the cell number change stood at 9.54%. The AC50 under setting [2] was 0.651 µM [rising, partial curve, poor fit].

On to `CC(=O)Nc1ccc(S(=O)(=O)N2CCC(C(=O)O)(c3ccccc3)CC2)cc1`, for which the cell number change is 3.28%. Moreover, the AC50 under setting [1] is 29.1 µM [rising, single point].

`CCc1nccn1C(=O)c1cnn2c(C(F)F)cc(-c3ccccc3)nc12`: the AC50 under setting [1] is 18.4 µM [falling, partial curve].

For `O=C(Cc1ccccc1)Nc1ccccc1C(=O)N1CCCCC1`, the cell number change amounted to 8.55%.

Regarding `O=C(COC(=O)c1c2ccccc2cc2ccccc12)Nc1ncc(C(F)(F)F)cc1Cl`, the cell number change was 0.219%. Also, under setting [1], the AC50 was 1.64 µM [rising, partial curve].

Consider `O=C(NCc1ccco1)c1ccc(=O)[nH]n1`, for which the cell number change was -4.22%.

As to `Cc1cc(Cl)ccc1NC(=O)CN(C)C1=NS(=O)(=O)c2ccccc21`, the cell number change was 25.7%. The AC50 under setting [1] was 29.1 µM [rising, single point].

On to `O=C(/C=C/c1cccc(Cl)c1)Nc1ccncc1`, for which the cell number change worked out at 14.1%. The AC50 under setting [1] is 32.6 µM [rising, single point].

Consider `O=C(Nc1ccc2c(c1)OCCO2)C(=O)NC1CC1`, for which the cell number change was 1.8%. Besides, under setting [1], the AC50 is 29.1 µM [rising, single point].

For `COc1cccc(C2CC(=O)Nc3c2c(=O)n(C)c(=O)n3C)c1OC` (configuration not stated), the cell number change is -15.7%. Further, the AC50 under setting [1] is 3.26 µM [falling, single point].

For `CN(C)C(=O)C[n+]1cccc(/C=N/O)c1`, the cell number change is -0.803%. For the same molecule, the AC50 under setting [2] is 0.82 µM [rising, single point].

With `CCC(C)c1ccccc1OCCCNC1CCCC1` (configuration not stated), the cell number change is -1.75%. The half-maximal activity concentration (AC50) under setting [1] was 29.1 µM [rising, single point].

With `O=C(CCS(=O)(=O)c1ccc2c(c1)NC(=O)CS2)NCc1cccs1`, the cell number change worked out at 11.9%. Moreover, under setting [1], the AC50 is 0.731 µM [rising, single point].

In the case of `CC(Sc1nnc(-c2ccccc2F)o1)C(=O)Nc1ccc(N2CCOCC2)cc1` (configuration not stated), the half-maximal activity concentration (AC50) under setting [2] is 1.64 µM [rising, partial curve].

Consider `Cc1snc(SCC(=O)N/N=C(\N)COc2cccc(C(F)(F)F)c2)c1C#N`, for which the cell number change was 143%. The concentration at half-maximal activity (AC50) under setting [2] is 29.1 µM [rising, single point]. Besides, the AC50 under setting [1] is 20.6 µM [rising, partial curve].

Take `COc1ccc(S(=O)(=O)N(C)c2ccc(C(=O)NCCC(C)C)cc2)cc1`: the cell number change was -3.33%.

Consider `CCCCC(CC(O)COCCC)c1n[nH]c(=S)n1-c1ccccc1` (configuration not stated), for which the cell number change turned out to be 22.3%. Besides, the AC50 under setting [1] was 10.3 µM [rising, partial curve, poor fit].

In the case of `CC(C)C(NC(=O)OCc1ccccc1)C(=O)OCC(=O)N1C(C)CCCC1C` (configuration not stated), the cell number change was determined as 45.1%. Also, the AC50 under setting [2] is 1.16 µM [rising, full curve]. In addition, the AC50 under setting [1] was 0.58 µM [rising, full curve, poor fit].

On to `O=[N+]([O-])c1ccc(N/N=C/c2ccc[nH]2)cc1`, for which the cell number change is 35.3%. Further, the AC50 under setting [2] is 20.6 µM [rising, single point]. In addition, under setting [1], the concentration at half-maximal activity (AC50) was 9.2 µM [falling, partial curve].

On to `CSc1ccc(/C=C(\C#N)C(=O)NC2CCCCC2C)cc1` (configuration not stated), for which the cell number change was 6.04%.

Take `O=C1CCCCN1CC(=O)N1CCCC(Nc2ccc(F)c(F)c2)C1` (configuration not stated): the cell number change was -77.5%. Further, the half-maximal activity concentration (AC50) under setting [2] is 13 µM [falling, partial curve]. Under setting [1], the AC50 is 23.1 µM [falling, single point].

Turning to `O=C(CSc1nccn1-c1ccccc1)NO`, the cell number change is -30.2%.

As to `CC(=O)NCc1ccc(-c2csc(-c3cccs3)n2)cc1`, the cell number change turned out to be 18.1%. Further, the AC50 under setting [1] is 0.103 µM [rising, partial curve, poor fit].

For `CC(C)n1c(-c2ccc(N(C)C)cc2)nc2ccccc21`, the cell number change is 52.4%. Besides, the AC50 under setting [2] was 2.06 µM [rising, full curve]. Moreover, the AC50 under setting [1] was 2.59 µM [rising, full curve].

As to `CCCCN(C(=O)COC(=O)COc1c(C)cc(C)cc1C)c1c(N)n(CCC)c(=O)[nH]c1=O`, the concentration at half-maximal activity (AC50) was 4.11 µM [falling, single point] under setting [2] and 4.61 µM [rising, full curve] under setting [1].

As to `CCOc1ccc(/C=C2\NC(=S)NC2=O)cc1`, the cell number change was -32.4%. In addition, the AC50 under setting [2] was 18.4 µM [falling, single point]. Besides, under setting [1], the AC50 is 18.4 µM [falling, single point].

As to `Cc1cc(Nc2cccc(Cl)c2)c2ccccc2n1`, the cell number change worked out at 6.22%. For the same molecule, under setting [1], the concentration at half-maximal activity (AC50) was 18.4 µM [falling, single point].

`CCCNC(=O)COc1ncnc2sccc12`: the cell number change stood at 8.67%. Moreover, the AC50 under setting [2] is 6.51 µM [rising, single point].

As to `CN1CCN(C(=O)/C(=C/c2ccc([N+](=O)[O-])cc2)NC(=O)c2ccccc2)CC1`, the cell number change was 1.28%.

For `CN(CC(=O)Nc1cccc(F)c1)C(=O)c1ccncc1`, the cell number change is -7.69%.

Regarding `CN(C)c1ccc(C(CNC(=O)c2ccc(-c3ccccc3)cc2)N2CCOCC2)cc1` (configuration not stated), the cell number change is 63.6%. Also, under setting [2], the AC50 is 14.6 µM [rising, partial curve].

Turning to `CCOC(=O)c1ccccc1NS(=O)(=O)c1cnn(CC)c1C`, the cell number change is -18%. Moreover, the half-maximal activity concentration (AC50) under setting [1] was 4.11 µM [rising, full curve].

With `CC1(c2ccc3c(c2)OCCO3)NC(=O)N(CC(=O)Nc2ccccc2SCC#N)C1=O` (configuration not stated), the cell number change turned out to be 6.34%. Besides, the AC50 under setting [1] is 25.9 µM [rising, single point].
